Results: article PMC4270071
No constants are given. Whether binding was seen depends on the method and setting. Binding seen in cells or lysates may run through a third protein. Binding can be weak; no strength is given. Where a sequence is shown, tags or fusion partners need not be part of it.

The chains behind the UniProt entries cited, without tags or fusion partners. Where a name states a change or a piece, a line headed by the entry shows the natural chain unless it says otherwise.
UniProt O60832: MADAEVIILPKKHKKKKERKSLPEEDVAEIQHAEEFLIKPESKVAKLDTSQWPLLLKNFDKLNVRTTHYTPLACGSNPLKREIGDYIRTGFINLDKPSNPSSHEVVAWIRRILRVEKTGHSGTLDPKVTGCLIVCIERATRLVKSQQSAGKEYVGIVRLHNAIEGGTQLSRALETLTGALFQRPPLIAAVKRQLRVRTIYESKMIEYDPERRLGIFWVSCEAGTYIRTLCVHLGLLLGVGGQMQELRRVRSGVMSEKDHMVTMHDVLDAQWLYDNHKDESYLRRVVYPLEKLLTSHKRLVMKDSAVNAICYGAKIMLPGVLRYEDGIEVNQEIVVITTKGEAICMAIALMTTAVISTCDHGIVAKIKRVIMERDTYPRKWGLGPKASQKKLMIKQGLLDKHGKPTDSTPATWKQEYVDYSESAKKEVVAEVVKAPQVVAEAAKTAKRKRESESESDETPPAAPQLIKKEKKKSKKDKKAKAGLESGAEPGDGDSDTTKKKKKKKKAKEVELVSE

Biological target: His6-tagged human DKC1 Δ22C (Sf9) (human) (UniProt O60832)
Assay: co-purification of co-expressed subunits (tandem affinity); Sf9 cells co-expressing His6-DKC1 (wild type or mutant), GAR1, FLAG-NHP2, NOP10 (wild type or R34W); Ni-NTA, Heparin Sepharose (1 M NaCl eluate), anti-FLAG agarose, mock or MNase treated, washed with 0.6 M NaCl, FLAG peptide elution; silver or Coomassie stain

B1: FLAG-tagged NHP2 (Sf9) (protein, UniProt Q9NX24 1-153)
chain: MTKIKADPDGPEAQAEACSGERTYQELLVNQNPIAQPLASRRLTRKLYKCIKKAVKQKQIRRGVKEVQKFVNKGEKGIMVLAGDTLPIEVYCHLPVMCEDRNLPYVYIPSKTDLGAAAGSKRPTCVIMVKPHEEYQEAYDECLEEVQSLPLPL
B1 was tested, and the binding was “binds”.
